Results taken from PubChem BioAssay AID2061324 (National Center for Advancing Translational Sciences (NCATS), 2025).
The inconclusive results got no clear call from the source; some entries with a clear call stand among them for comparison. Potencies beside an inconclusive call are fits to weak or partial responses and may not hold up. Calls of active or inactive are those of the source. The call rests on the fitted dose curve; in most records, active means well fitted inhibition curve with a large enough effect; inconclusive means small, poorly fitted or top-dose-only effect; inactive means flat fitted curve, though single readings scatter.

Experiment: Identification of antibody-drug conjugate (ADC) payloads which are substrates of ATP-binding cassette drug efflux transporters: ABCG2-HEK293-pcDNA cell line
Conditions: ABCG2-HEK293 transfected cells viability, CellTiter-Glo, 48 h
From the text: Antibody-drug conjugates (ADCs) feature an antibody recognizing a specific protein joined to a potent toxic payload. Numerous antibody-drug conjugates have received FDA approval; however, clinical resistance arises. Resistance mechanisms include decreased expression or mutation of the antibody target, impaired payload release, or increased expression of ATP-binding cassette (ABC) efflux transporters associated with multidrug resistance. We therefore sought to characterize the interaction of ABC multidrug transporters with ADC payloads. We performed a high-throughput screen with 27 common ADC payloads using cells lines expressing ABC transporters P-glycoprotein (P-gp, encoded by ABCB1) or ABCG2 (encoded by ABCG2). Confirmatory assays were also performed using cells transfected to express P-gp, ABCG2, or MRP1 (encoded by ABCC1). Several commonly used ADC payloads were substrates of P-gp, including calicheamicin gamma1, monomethyl auristatin E, DM1, and DM4. All the pyrrolobenzodiazepines tested - SJG136, SGD-1882, SG2057, and SG3199 - were substrates of P-gp, ABCG2, and MRP1. […] These findings highlight the risk of transporter-mediated resistance with certain ADC payloads and underscore the importance of selecting payloads that evade ABC transporter recognition in future ADC development.
HEK-293 cells were transfected with empty vector (pcDNA) or vector containing the human ABCB1 (MDR-19), ABCG2 (R-5), or ABCC1 gene (MRP1) and were maintained in EMEM with 2 mg/mL G418 added to maintain transporter expression. The HeLa derivative KB-3-1 and the P-gp overexpressing KB-8-5-11 subline were maintained in DMEM; KB-8-5-11 additionally received 100 ng/mL colchicine. H460 parental cells were obtained from the Division of Cancer Treatment and Diagnosis Tumor Repository, National Cancer Institute at Frederick, MD and were cultured in RPMI. The ABCG2 expressing subline H460 MX20 was generated by selecting H460 cells in 20 nM mitoxantrone. Media in all cases was supplemented with 10% FBS and 1% penicillin-streptomycin. We explored 27 common ADC payloads, in two orthogonal, paired cell line sets-a drug selected and transfected set for each transporter--to identify substrates of the ABC transporters P-gp and ABCG2. Compounds were sourced from Levena Biopharma (San Diego, CA), Selleck Chem (Houston, TX), ChemieTek (Indianapolis, IN), or Microsource Discovery Systems (Gaylordsville, CT). Screening was performed as previously described. Briefly, cells were plated at a density of 500 cells/well in 1536 well plates with compounds added using a 1536-head pin tool (Kalypsys, San Diego CA). Cells were incubated with cytotoxic drugs and processed with CellTiter Glo reagent (Promega, Madison, WI) to determine viability after 48 hours. P-gp substrates were identified by comparing compound activity between paired sets of low-expressing (sensitive) and over-expressing (resistant) cell lines.

Structure (SMILES) | Potency
CC[C@H](C)[C@@H]([C@H](N)CC(=O)N1CCC[C@H]1[C@H](OC)[C@@H](C)C(=O)N[C@@H](Cc1ccccc1)c1nccs1)N(C)C(=O)[C@@H](NC(=O)[C@@H](NC)C(C)C)C(C)C | inconclusive: 2.1 nM [falling, full curve]
COc1cccc2c1C(=O)c1c(O)c3c(c(O)c1C2=O)C[C@@](O)(C(=O)CO)C[C@@H]3O[C@H]1C[C@H](N)[C@H](O)[C@H](C)O1 | inconclusive: 33.6 nM [falling, full curve]
COc1ccc(C2=CN3C(=O)c4cc(OC)c(OCCCOc5cc6c(cc5OC)C(=O)N5C=C(c7ccc(N)cc7)C[C@@H]5C=N6)cc4N=C[C@H]3C2)cc1 | inconclusive: 6 nM [falling, full curve]
COc1cccc2c1C(=O)c1c(O)c3c(c(O)c1C2=O)C[C@@](O)(C(=O)CO)C[C@@H]3O[C@H]1C[C@H]2[C@H](O[C@@H]3[C@@H](OC)OCCN32)[C@H](C)O1 | active: 0.2 nM
CCc1c2c(nc3ccc(O)cc13)-c1cc3c(c(=O)n1C2)COC(=O)[C@]3(O)CC | inconclusive: 8.4 nM [falling, full curve]
